These are yes or no findings as the source states them, for the method shown. In cells and extracts the contact can be indirect. Some binding calls cover weakened binding; strength is not graded here. Where a sequence is shown, tags or fusion partners need not be part of it. Values belong to the binder of their own block, whether it stands above or below them.
How the values were obtained:
[1] = molecular target: CIN85-ΔCC (deletion of amino acid 601 to 665), Flag-tagged (UniProt Q96B97); experiment: co-IP; Flag-tagged CIN85 or CIN85-ΔCC co-expressed with tagged (eGFP) Vps protein in HEK293 cells; CIN85 immunoprecipitated by anti-Flag antibody, Vps protein detected by Western blot
[2] = molecular target: CIN85 (Cbl-interacting protein of 85 kDa), wild type, Flag-tagged (UniProt Q96B97); experiment: as above

By UniProt entry, the sequences of proteins in these tests, tags left out. Where a name states a change or a piece, a line headed by the entry shows the natural chain unless it says otherwise. Chains listed by the source or under a name are the forms on record and can include a tag or linker. Residues count along the entry.
UniProt Q96B97: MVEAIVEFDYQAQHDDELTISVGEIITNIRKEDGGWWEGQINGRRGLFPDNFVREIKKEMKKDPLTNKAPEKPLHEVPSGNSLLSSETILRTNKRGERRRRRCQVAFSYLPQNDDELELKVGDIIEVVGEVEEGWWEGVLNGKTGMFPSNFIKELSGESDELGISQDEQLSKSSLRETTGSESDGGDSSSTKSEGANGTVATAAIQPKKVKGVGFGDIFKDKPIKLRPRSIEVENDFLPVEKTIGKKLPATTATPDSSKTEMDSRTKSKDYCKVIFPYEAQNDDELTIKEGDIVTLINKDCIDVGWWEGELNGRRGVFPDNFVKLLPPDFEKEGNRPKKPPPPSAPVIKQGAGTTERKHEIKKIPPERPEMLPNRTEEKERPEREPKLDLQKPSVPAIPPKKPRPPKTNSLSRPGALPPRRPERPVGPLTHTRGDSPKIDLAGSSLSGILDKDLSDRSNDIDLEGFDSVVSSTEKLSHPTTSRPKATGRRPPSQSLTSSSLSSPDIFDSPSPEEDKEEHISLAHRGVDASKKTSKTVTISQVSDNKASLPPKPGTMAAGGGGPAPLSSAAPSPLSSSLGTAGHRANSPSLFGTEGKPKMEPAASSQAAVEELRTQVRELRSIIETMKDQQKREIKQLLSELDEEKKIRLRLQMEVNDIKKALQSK
CIN85-ΔCC (deletion of amino acid 601 to 665), Flag-tagged: residues 1-600 of Q96B97

binding [1]: binds weakly | binding [2]: binds weakly
B1: CHMP4B (Vps32B), eGFP-tagged (protein, UniProt Q9H444 1-224)
chain: MSVFGKLFGAGGGKAGKGGPTPQEAIQRLRDTEEMLSKKQEFLEKKIEQELTAAKKHGTKNKRAALQALKRKKRYEKQLAQIDGTLSTIEFQREALENANTNTEVLKNMGYAAKAMKAAHDNMDIDKVDELMQDIADQQELAEEISTAISKPVGFGEEFDEDELMAELEELEQEELDKNLLEISGPETVPLPNVPSIALPSKPAKKKEEEDDDMKELENWAGSM

binding [1]: binds | binding [2]: binds
B2: CHMP4C (Vps32C), tagged (protein, UniProt Q96CF2 1-233)
chain: MSKLGKFFKGGGSSKSRAAPSPQEALVRLRETEEMLGKKQEYLENRIQREIALAKKHGTQNKRAALQALKRKKRFEKQLTQIDGTLSTIEFQREALENSHTNTEVLRNMGFAAKAMKSVHENMDLNKIDDLMQEITEQQDIAQEISEAFSQRVGFGDDFDEDELMAELEELEQEELNKKMTNIRLPNVPSSSLPAQPNRKPGMSSTARRSRAASSQRAEEEDDDIKQLAAWAT

binding [1]: binds | binding [2]: binds
B3: CHMP2A (Vps2A), tagged (protein, UniProt O43633 1-222)
chain: MDLLFGRRKTPEELLRQNQRALNRAMRELDRERQKLETQEKKIIADIKKMAKQGQMDAVRIMAKDLVRTRRYVRKFVLMRANIQAVSLKIQTLKSNNSMAQAMKGVTKAMGTMNRQLKLPQIQKIMMEFERQAEIMDMKEEMMNDAIDDAMGDEEDEEESDAVVSQVLDELGLSLTDELSNLPSTGGSLSVAAGGKKAEAAASALADADADLEERLKNLRRD
